At least one peptide structure holds a part that was inferred or is arguable (an end, a ring closure or a residue). Some entries repeat one wording, which the source may state once for all of them. Where no end group is shown, it is not given here.
Tested on: crossbred swine
Assay: In vivo GRF analog administration in swine, serum GH by RIA (GH AUC)
Settings: subcutaneous injection in porcine gelatin, dose range 0.0, 0.3, 1.0, 3.0, and 6.0 mg/kg (so in the source), compared with SEQ ID NO: 34-NH2
Method: In vivo GRF analog studies were performed in crossbred swine (approximately70 lbs; Hoffmann-La Roche Experimental Research Facility) housed in individual metabolism cages with food and water freely available. For each GRF analog examined, six pigs were arranged in a 6×6 latin square design, such that each pig received a different dose (0 [saline], 0.3, 1.0, 3.0, 6.0 or 10.0 μg/kg body weight) over a six day period. […] All swine were cannulated via the femoral artery under halothane/ketamine HCL/xylezine anesthesia for subsequent (2-3 days) blood sampling. GRF analog was administered by subcutaneous injection in porcine gelatin. Pretreatment (control) blood samples were taken every 30 min from 8:30-9:30 a.m. Treatment doses were administered beginning at 10:00 a.m. One hr post-dosing, animals were sampled at 10 min intervals; 2nd hr post-dosing, animals were sampled at 15 min intervals; 3rd hr post-dosing,animals were sampled at 30 min intervals. All samples were centrifuged and the serum fractions stored (-20° C.) until assayed for GH.
GH levels in porcine sera were measured by homologous double-antibody RIA, employing porcine GH standard (lot# AFP-10859C) supplied by Dr. A. Parlow (Research and Education Institute, Torrance, Calif.) and baboon anti-pGH sera (B-58: Hoffmann-La Roche). […] The least detectable GH concentration was 1.56 ng/ml (0.156 ng/100 ml sample), with 50% displacement observed at 12.13 ng/ml. […] Inter-assay and intra-assay coefficients of variation were 9.6 and 6.2%, respectively. GH area under the curve (GH AUC) for the treatment period (0-360 min) was determined by trapezoidal summation. Mean GH AUC and mean GH peak data were independently compared using a one-way analysis of variance (repeated measures ANOVA) and Fisher least significant difference (LSD.05).

Sequence | In vivo potency as estimated by GH AUC
HVDAIFTNSYRKVLAQLSARKLLQDILSRQQG [SEQ ID NO: 35-OH, reference compound] | similarly potent to SEQ ID NO: 34-NH2
HVDAIFTQSYRKVLAQLSARKLLQDILSRQQG [SEQ ID NO: 13-OH] | similarly potent to SEQ ID NO: 34-NH2
HVDAIFTQSYRKVLAQLSARKLLQDILNRQQG [SEQ ID NO: 14-OH] | similarly potent to SEQ ID NO: 34-NH2
